PubChem BioAssay AID1224826, NIAID, 2016
This is a random part of about 17,000 reagents tested. Of all reagents, about 1,110 (6.6%) were called active. 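Active means lowered or raised reporter signal; replicate intensities are raw and not normalised per plate.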 Entries without a mark were called inactive. Reagent sequences are not shown.

Assay: 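Genes that change LPS-induced Tnf promoter activity in mouse macrophages when knocked down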 (primary screen)
System: RAW264.7 G9 macrophages from mouse bearing reporters for p65 (GFP) and the Tnf promoter (mCherry)
Reagents: siRNA pool against mouse genes, 100 nM
Time to read-out: 16 h of LPS stimulation, after 2 days of siRNA transfection
Conditions: bacterial lipopolysaccharide (Salmonella minnesota R595), 10 ng/ml
Detection: 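Nuclear mCherry signal of the Tnf promoter reporter measured by imaging after background removal, scaled to each plate median and turned into robust z-scores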
Direction: Tnf reporter robust z-score: higher = stronger Tnf promoter reporter signal after LPS; Tnf reporter intensity: higher = stronger Tnf promoter reporter signal
Active means: 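Called active when robust z-score is at most -1.3, matching the median of the Tlr4 knock-down control, or over 3; control wells and wells with under 50 cells never active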
Calls: active = Tnf reporter clearly lowered or raised; inactive = no clear change in Tnf reporter

| Gene | PubChem SID | Tnf reporter robust z-score | fewer than 50 cells in well | Tnf reporter intensity, replicate 1 | Tnf reporter intensity, replicate 2 |
| --- | --- | --- | --- | --- | --- |
| Prss23 (serine protease 23) | SID315475313 | 1.54 | enough cells in well | 151 | 95.5 |
| Gp1ba (glycoprotein 1b, alpha polypeptide) | SID315466974 | 0.26 | enough cells in well | 234 | 226 |
| Epas1 (endothelial PAS domain protein 1) | SID315466511 | 0.17 | enough cells in well | 240 | 246 |
| Cables1 (CDK5 and Abl enzyme substrate 1) | SID315472047 | – | fewer than 50 cells per well; well left out of calls | 112 | 127 |
| Gm5148 (predicted gene 5148) | SID315481788 | -0.36 | enough cells in well | 169 | 127 |
| Neurl1a (neuralized E3 ubiquitin protein ligase 1A) | SID315468135 | -0.79 | enough cells in well | 175 | 166 |
| Mmp11 (matrix metallopeptidase 11) | SID315467942 | 0.65 | enough cells in well | 366 | 213 |
| Tead3 (TEA domain family member 3) | SID315469650 | 0.23 | enough cells in well | 217 | 166 |
| Amigo3 (adhesion molecule with Ig like domain 3) | SID315481406 | -0.03 | enough cells in well | 189 | 200 |
| Or4k35 (olfactory receptor family 4 subfamily K member 35) | SID315480076 | 0.02 | enough cells in well | 240 | 81 |
| Erc2 (ELKS/RAB6-interacting/CAST family member 2) | SID315479412 | 0.9 | enough cells in well | 317 | 280 |
| Sh2d1b1 (SH2 domain containing 1B1) | SID315470472 | – | fewer than 50 cells per well; well left out of calls | 119 | 65 |
| Reg2 (regenerating islet-derived 2) | SID315468936 | -0.38 | enough cells in well | 132 | 91.2 |
| Or8b39 (olfactory receptor family 8 subfamily B member 39) | SID315480099 | 2.53 | enough cells in well | 200 | 196 |
| Tdh (L-threonine dehydrogenase) | SID315471924 | -0.82 | enough cells in well | 91.4 | 62.3 |
| Herpud2 (HERPUD family member 2) | SID315475705 | – | fewer than 50 cells per well; well left out of calls | 136 | 103 |
| Depdc7 (DEP domain containing 7) | SID315477705 | 0.09 | enough cells in well | 185 | 161 |
| Chst12 (carbohydrate sulfotransferase 12) | SID315471965 | 0.1 | enough cells in well | 179 | 170 |
| Or55b10 (olfactory receptor family 55 subfamily B member 10) | SID315480480 | – | fewer than 50 cells per well; well left out of calls | 49.6 | 38.1 |
| 1700012B09Rik (RIKEN cDNA 1700012B09 gene) | SID315473785 | 1.17 | enough cells in well | 286 | 122 |
| Slc5a2 | SID315479897 | -0.01 | enough cells in well | 179 | 167 |
| Gmnn (geminin) | SID315471794 | -0.49 | enough cells in well | 203 | 152 |
| Or4f53 (olfactory receptor family 4 subfamily F member 53) | SID315480075 | 2.1 | enough cells in well | 289 | 220 |
| Sf3b5 (splicing factor 3b, subunit 5) | SID315472231 | – | fewer than 50 cells per well; well left out of calls | 180 | 61.5 |
| 2900052N01Rik (RIKEN cDNA 2900052N01 gene) | SID315474667 | – | fewer than 50 cells per well; well left out of calls | 128 | 7.66 |
| Sp3 (trans-acting transcription factor 3) | SID315469398 | 0.23 | enough cells in well | 335 | 203 |
| Agt (angiotensinogen) | SID315465351 | -0.75 | enough cells in well | 120 | 133 |
| Mnd1 (meiotic nuclear divisions 1) | SID315475411 | -1.39 (active) | enough cells in well | 137 | 27.4 |
| Pcdh10 (protocadherin 10) | SID315468405 | – | fewer than 50 cells per well; well left out of calls | 91.3 | 32.5 |
| Brdt (bromodomain, testis-specific) | SID315477021 | -1.08 | enough cells in well | 89.6 | 96.7 |
| Zzz3 (zinc finger, ZZ domain containing 3) | SID315476762 | -0.2 | enough cells in well | 95.1 | 118 |
| Epb41l3 (erythrocyte membrane protein band 4.1 like 3) | SID315466514 | 1.27 | enough cells in well | 333 | 224 |
| Tgfb1 (transforming growth factor, beta 1) | SID315469687 | 0.62 | enough cells in well | 273 | 168 |
| H2bc26 (H2B clustered histone 26) | SID315481828 | -1.18 | enough cells in well | 157 | 92.3 |
| Anapc15 (anaphase promoting complex C subunit 15) | SID315475121 | – | fewer than 50 cells per well; well left out of calls | 228 | 116 |
| Fbxl6 (F-box and leucine-rich repeat protein 6) | SID315470755 | -1.37 (active) | enough cells in well | 129 | 118 |
| Tmem108 (transmembrane protein 108) | SID315475803 | -0.88 | enough cells in well | 130 | 106 |
| Plcxd1 | SID315481897 | -0.19 | enough cells in well | 152 | 151 |
| Rfx3 (regulatory factor X, 3 (influences HLA class II expression)) | SID315468960 | -0.74 | enough cells in well | 243 | 147 |
| Vps13c (vacuolar protein sorting 13C) | SID315481333 | 1.24 | enough cells in well | 157 | 121 |

Reformatted: 6 of the entries above.
{"Gene": "Pcdh10 (protocadherin 10)", "PubChem SID": "SID315468405", "fewer than 50 cells in well": "fewer than 50 cells per well; well left out of calls", "Tnf reporter intensity, replicate 1": 91.3, "Tnf reporter intensity, replicate 2": 32.5}
{"Gene": "Brdt (bromodomain, testis-specific)", "PubChem SID": "SID315477021", "Tnf reporter robust z-score": -1.08, "fewer than 50 cells in well": "enough cells in well", "Tnf reporter intensity, replicate 1": 89.6, "Tnf reporter intensity, replicate 2": 96.7}
{"Gene": "Zzz3 (zinc finger, ZZ domain containing 3)", "PubChem SID": "SID315476762", "Tnf reporter robust z-score": -0.2, "fewer than 50 cells in well": "enough cells in well", "Tnf reporter intensity, replicate 1": 95.1, "Tnf reporter intensity, replicate 2": 118}
{"Gene": "Epb41l3 (erythrocyte membrane protein band 4.1 like 3)", "PubChem SID": "SID315466514", "Tnf reporter robust z-score": 1.27, "fewer than 50 cells in well": "enough cells in well", "Tnf reporter intensity, replicate 1": 333, "Tnf reporter intensity, replicate 2": 224}
{"Gene": "Tgfb1 (transforming growth factor, beta 1)", "PubChem SID": "SID315469687", "Tnf reporter robust z-score": 0.62, "fewer than 50 cells in well": "enough cells in well", "Tnf reporter intensity, replicate 1": 273, "Tnf reporter intensity, replicate 2": 168}
{"Gene": "H2bc26 (H2B clustered histone 26)", "PubChem SID": "SID315481828", "Tnf reporter robust z-score": -1.18, "fewer than 50 cells in well": "enough cells in well", "Tnf reporter intensity, replicate 1": 157, "Tnf reporter intensity, replicate 2": 92.3}
